Measurements: patent US20210032369A1, “METHODS RELATED TO PARKINSON?S DISEASE AND SYNUCLEINOPATHIES” (The Scripps Research Institute, priority 2018, published 2021)
Entries after “also recorded” stand apart in the source; their conditions may differ. At least one structure is not confirmed: it was looked up by name or label, or the drawing left a doubt.

Test system: Pα-syn* aggregates in PFF-seeded primary hippocampal neurons
Assay: Autophagy modulation assay: Pα-syn* aggregates in PFF-seeded primary hippocampal neurons
Assay type: cell-based, mouse
Settings: treated from day 3.5 to day 6 post-PFF exposure, rapamycin 300 nM, versus vehicle

## CO[C@H]1C[C@@H]2CC[C@@H](C)[C@@](O)(O2)C(=O)C(=O)N2CCCC[C@H]2C(=O)O[C@H]([C@H](C)C[C@@H]2CC[C@@H](O)[C@H](OC)C2)CC(=O)[C@H](C)/C=C(\C)[C@@H](O)[C@@H](OC)C(=O)[C@H](C)C[C@H](C)/C=C/C=C/C=C/1C [rapamycin]
Chloroquine 1 μM, 3-Methyladenine 1 mM, 200 cells counted blinded
  number of Pα-syn* aggregates per cell: more numerous; also recorded: numerous
  size of Pα-syn* aggregates: larger; also recorded: large
